No constants are given. Whether binding was seen depends on the method and setting. Binding seen in cells or lysates may run through a third protein. A yes stands for co-enrichment or nearness to the bait. Other partners may have been found. No binding means not detected with the bait.
B1: THOC6 (protein, UniProt Q86W42 1-341)
chain: MERAVPLAVPLGQTEVFQALQRLHMTIFSQSVSPCGKFLAAGNNYGQIAIFSLSSALSSEAKEESKKPVVTFQAHDGPVYSMVSTDRHLLSAGDGEVKAWLWAEMLKKGCKELWRRQPPYRTSLEVPEINALLLVPKENSLILAGGDCQLHTMDLETGTFTRVLRGHTDYIHCLALRERSPEVLSGGEDGAVRLWDLRTAKEVQTIEVYKHEECSRPHNGRWIGCLATDSDWMVCGGGPALTLWHLRSSTPTTIFPIRAPQKHVTFYQDLILSAGQGRCVNQWQLSGELKAQVPGSSPGLLSLSLNQQPAAPECKVLTAAGNSCRVDVFTNLGYRAFSLSF
B2: NCBP3 (protein, UniProt Q53F19 1-620)
chain: MAAVRGLRVSVKAEAPAGPALGLPSPEAESGVDRGEPEPMEVEEGELEIVPVRRSLKELIPDTSRRYENKAGSFITGIDVTSKEAIEKKEQRAKRFHFRSEVNLAQRNVALDRDMMKKAIPKVRLETIYICGVDEMSTQDVFSYFKEYPPAHIEWLDDTSCNVVWLDEMTATRALINMSSLPAQDKIRSRDASEDKSAEKRKKDKQEDSSDDDEAEEGEVEDENSSDVELDTLSQVEEESLLRNDLRPANKLAKGNRLFMRFATKDDKKELGAARRSQYYMKYGNPNYGGMKGILSNSWKRRYHSRRIQRDVIKKRALIGDDVGLTSYKHRHSGLVNVPEEPIEEEEEEEEEEEEEEEEDQDMDADDRVVVEYHEELPALKQPRERSASRRSSASSSDSDEMDYDLELKMISTPSPKKSMKMTMYADEVESQLKNIRNSMRADSVSSSNIKNRIGNKLPPEKFADVRHLLDEKRQHSRPRPPVSSTKSDIRQRLGKRPHSPEKAFSSNPVVRREPSSDVHSRLGVPRQDSKGLYADTREKKSGNLWTRLGSAPKTKEKNTKKVDHRAPGAEEDDSELQRAWGALIKEKEQSRQKKSRLDNLPSLQIEVSRESSSGSEAES
B3: SARNP (protein, UniProt P82979 1-210)
chain: MATETVELHKLKLAELKQECLARGLETKGIKQDLIHRLQAYLEEHAEEEANEEDVLGDETEEEETKPIELPVKEEEPPEKTVDVAAEKKVVKITSEIPQTERMQKRAERFNVPVSLESKKAARAARFGISSVPTKGLSSDNKPMVNLDKLKERAQRFGLNVSSISRKSEDDEKLKKRKERFGIVTSSAGTGTTEDTEAKKRKRAERFGIA
B4: THOC3 (protein, UniProt Q96J01 1-351)
chain: MAVPAAAMGPSALGQSGPGSMAPWCSVSSGPSRYVLGMQELFRGHSKTREFLAHSAKVHSVAWSCDGRRLASGSFDKTASVFLLEKDRLVKENNYRGHGDSVDQLCWHPSNPDLFVTASGDKTIRIWDVRTTKCIATVNTKGENINICWSPDGQTIAVGNKDDVVTFIDAKTHRSKAEEQFKFEVNEISWNNDNNMFFLTNGNGCINILSYPELKPVQSINAHPSNCICIKFDPMGKYFATGSADALVSLWDVDELVCVRCFSRLDWPVRTLSFSHDGKMLASASEDHFIDIAEVETGDKLWEVQCESPTFTVAWHPKRPLLAFACDDKDGKYDSSREAGTVKLFGLPNDS
B5: POLDIP3 (protein, UniProt Q9BY77 1-421)
chain: MADISLDELIRKRGAAAKGRLNARPGVGGVRSRVGIQQGLLSQSTRTATFQQRFDARQKIGLSDARLKLGVKDAREKLLQKDARFRIKGKVQDAREMLNSRKQQTTVPQKPRQVADAREKISLKRSSPAAFINPPIGTVTPALKLTKTIQVPQQKAMAPLHPHPAGMRINVVNNHQAKQNLYDLDEDDDGIASVPTKQMKFAASGGFLHHMAGLSSSKLSMSKALPLTKVVQNDAYTAPALPSSIRTKALTNMSRTLVNKEEPPKELPAAEPVLSPLEGTKMTVNNLHPRVTEEDIVELFCVCGALKRARLVHPGVAEVVFVKKDDAITAYKKYNNRCLDGQPMKCNLHMNGNVITSDQPILLRLSDSPSMKKESELPRRVNSASSSNPPAEVDPDTILKALFKSSGASVTTQPTEFKIKL
B6: FYTTD1 (UIF) (protein, UniProt Q96QD9 1-318)
chain: MNRFGTRLVGATATSSPPPKARSNENLDKIDMSLDDIIKLNRKEGKKQNFPRLNRRLLQQSGAQQFRMRVRWGIQQNSGFGKTSLNRRGRVMPGKRRPNGVITGLAARKTTGIRKGISPMNRPPLSDKNIEQYFPVLKRKANLLRQNEGQRKPVAVLKRPSQLSRKNNIPANFTRSGNKLNHQKDTRQATFLFRRGLKVQAQLNTEQLLDDVVAKRTRQWRTSTTNGGILTVSIDNPGAVQCPVTQKPRLTRTAVPSFLTKREQSDVKKVPKGVPLQFDINSVGKQTGMTLNERFGILKEQRATLTYNKGGSRFVTVG
B7: THOC5 (protein, UniProt Q13769 1-683)
chain: MSSESSKKRKPKVIRSDGAPAEGKRNRSDTEQEGKYYSEEAEVDLRDPGRDYELYKYTCQELQRLMAEIQDLKSRGGKDVAIEIEERRIQSCVHFMTLKKLNRLAHIRLKKGRDQTHEAKQKVDAYHLQLQNLLYEVMHLQKEITKCLEFKSKHEEIDLVSLEEFYKEAPPDISKAEVTMGDPHQQTLARLDWELEQRKRLAEKYRECLSNKEKILKEIEVKKEYLSSLQPRLNSIMQASLPVQEYLFMPFDQAHKQYETARHLPPPLYVLFVQATAYGQACDKTLSVAIEGSVDEAKALFKPPEDSQDDESDSDAEEEQTTKRRRPTLGVQLDDKRKEMLKRHPLSVMLDLKCKDDSVLHLTFYYLMNLNIMTVKAKVTTAMELITPISAGDLLSPDSVLSCLYPGDHGKKTPNPANQYQFDKVGILTLSDYVLELGHPYLWVQKLGGLHFPKEQPQQTVIADHSLSASHMETTMKLLKTRVQSRLALHKQFASLEHGIVPVTSDCQYLFPAKVVSRLVKWVTVAHEDYMELHFTKDIVDAGLAGDTNLYYMALIERGTAKLQAAVVLNPGYSSIPPVFQLCLNWKGEKTNSNDDNIRAMEGEVNVCYKELCGPWPSHQLLTNQLQRLCVLLDVYLETESHDDSVEGPKEFPQEKMCLRLFRGPSRMKPFKYNHPQGFFSHR
B8: THOC1 (protein, UniProt Q96FV9 1-657)
chain: MSPTPPLFSLPEARTRFTKSTREALNNKNIKPLLSTFSQVPGSENEKKCTLDQAFRGILEEEIINHSSCENVLAIISLAIGGVTEGICTASTPFVLLGDVLDCLPLDQCDTIFTFVEKNVATWKSNTFYSAGKNYLLRMCNDLLRRLSKSQNTVFCGRIQLFLARLFPLSEKSGLNLQSQFNLENVTVFNTNEQESTLGQKHTEDREEGMDVEEGEMGDEEAPTTCSIPIDYNLYRKFWSLQDYFRNPVQCYEKISWKTFLKYSEEVLAVFKSYKLDDTQASRKKMEELKTGGEHVYFAKFLTSEKLMDLQLSDSNFRRHILLQYLILFQYLKGQVKFKSSNYVLTDEQSLWIEDTTKSVYQLLSENPPDGERFSKMVEHILNTEENWNSWKNEGCPSFVKERTSDTKPTRIIRKRTAPEDFLGKGPTKKILMGNEELTRLWNLCPDNMEACKSETREHMPTLEEFFEEAIEQADPENMVENEYKAVNNSNYGWRALRLLARRSPHFFQPTNQQFKSLPEYLENMVIKLAKELPPPSEEIKTGEDEDEEDNDALLKENESPDVRRDKPVTGEQIEVFANKLGEQWKILAPYLEMKDSEIRQIECDSEDMKMRAKQLLVAWQDQEGVHATPENLINALNKSGLSDLAESLTNDNETNS
B9: THOC7 (protein, UniProt Q6I9Y2 1-204)
chain: MGAVTDDEVIRKRLLIDGDGAGDDRRINLLVKSFIKWCNSGSQEEGYSQYQRMLSTLSQCEFSMGKTLLVYDMNLREMENYEKIYKEIECSIAGAHEKIAECKKQILQAKRIRKNRQEYDALAKVIQHHPDRHETLKELEALGKELEHLSHIKESVEDKLELRRKQFHVLLSTIHELQQTLENDEKLSEVEEAQEASMETDPKP

Chains of the proteins cited; added tags and fusions are not shown. Lines headed by an entry give the natural chain unless they say otherwise; changes in a name come on top.
UniProt Q9BZZ5: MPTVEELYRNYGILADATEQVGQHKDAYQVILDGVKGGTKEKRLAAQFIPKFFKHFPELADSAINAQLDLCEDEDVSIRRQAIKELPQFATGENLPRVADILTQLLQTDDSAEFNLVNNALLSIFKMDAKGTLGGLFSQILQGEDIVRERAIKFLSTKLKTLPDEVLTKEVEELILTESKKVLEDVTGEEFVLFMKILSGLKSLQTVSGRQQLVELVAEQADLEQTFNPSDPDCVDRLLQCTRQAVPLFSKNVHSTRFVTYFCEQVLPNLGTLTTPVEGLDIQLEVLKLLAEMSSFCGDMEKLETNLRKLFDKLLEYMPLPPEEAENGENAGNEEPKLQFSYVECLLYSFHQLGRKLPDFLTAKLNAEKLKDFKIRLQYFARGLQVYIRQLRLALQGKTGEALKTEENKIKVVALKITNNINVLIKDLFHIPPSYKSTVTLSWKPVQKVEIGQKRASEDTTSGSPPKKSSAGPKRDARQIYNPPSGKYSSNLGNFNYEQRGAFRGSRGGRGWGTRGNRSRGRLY

biological target: FLAG-tagged API5 4Mut (D145A/E184A/D185A/E190A) (human) (UniProt Q9BZZ5); assay: affinity purification with mass spectrometry; immunoprecipitation of FLAG-tagged API5 WT or 4Mut reconstituted in API5 knockout cells, proteomics analysis; mock as control

Row | binding | Binder
1 | no binding | B1
2 | no binding | B2
3 | binds | B3
4 | no binding | B4
5 | binds | B5
6 | no binding | B6
7 | no binding | B7
8 | no binding | B8

biological target: FLAG-tagged API5 WT (human) (UniProt Q9BZZ5); assay: as above

Row | binding | Binder
9 | binds | B1
10 | binds | B2
11 | binds | B3
12 | binds | B4
13 | no binding | B9
14 | binds | B5
15 | binds | B6
16 | binds | B7
17 | binds | B8
